The other results are listed elsewhere or left out.
Experiments:
Experiment in all cases: log2 fold change, soluble protein after heating vs DMSO (PISA); higher = thermal stabilisation; K562 cells, 10 uM, 30 min; active = over 0.2 and 3.5 SD of the protein, either way, in both replicates (recomputed)
[1] = compound: CON(C)C(=O)N1N=C(c2cc(F)ccc2F)S[C@@]1(CCCN)c1ccccc1 [filanesib]
How it was run: (§1)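 K562 cells at 2×10^6 cells/mL were treated with 10 μM compound for 30 min. Aliquots were heated for 3 min across 48°C-58°C, pooled, and extracted in PBS with 0.5% NP-40 at 4°C; soluble protein was the supernatant after 21,000xg for 90 min. Soluble protein was quantified by TMTpro 16plex LC-MS/MS with channel sums equalised, and reported as log2 fold change in thermal stability against DMSO controls, with values from duplicates.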

[2] = compound: COc1cc(Nc2ncc3c(n2)-c2ccc(Cl)cc2C(c2c(F)cccc2OC)=NC3)ccc1C(=O)O [alisertib]
How it was run: as §1

[3] = compound: COc1cc2nc(-c3cc(F)ccc3O)nc(N[C@@H]3CNC[C@H]3C(C)(C)O)c2cc1OC
How it was run: as §1

[4] = compound: COc1cc2ncnc(Nc3ccc(F)c(Cl)c3)c2cc1OCCCN1CCOCC1 [gefitinib]
How it was run: as §1

[5] = compound: COc1cccc2cc(-c3nc([C@H]4CC[C@H](C(=O)O)CC4)n4ncnc(N)c34)[nH]c12
How it was run: as §1

[6] = compound: CS(=O)(=O)CCNCc1ccc(-c2ccc3ncnc(Nc4ccc(OCc5cccc(F)c5)c(Cl)c4)c3c2)o1 [lapatinib]
How it was run: as §1

[7] = compound: CS(=O)(=O)N1CCN(Cc2cc3nc(-c4cccc5[nH]ncc45)nc(N4CCOCC4)c3s2)CC1 [pictilisib]
How it was run: as §1

[8] = compound: CS(=O)(=O)c1ccc(-c2cnc(N)c(C(=O)Nc3ccccc3)n2)cc1
How it was run: as §1

[9] = compound: C[C@@H]1COCCN1C2=NC(=NC(=C2)C3(CC3)S(=O)(=O)C)C4=C5C=CNC5=CC=C4
How it was run: as §1

[10] = compound: Cc1cc(Nc2cc(CN3CCOCC3)c3nc(C)c(Cc4ccc(Cl)cc4F)n3n2)n[nH]1 [gandotinib]
How it was run: as §1

[11] = compound: Cc1cc(SCc2sc(-c3ccc(C(F)(F)F)cc3)nc2C)ccc1OCC(=O)O
How it was run: as §1

[12] = compound: Cc1ccc(C(=O)N(CCCN)[C@@H](c2nc3cc(Cl)ccc3c(=O)n2Cc2ccccc2)C(C)C)cc1 [ispinesib]
How it was run: as §1

[13] = compound: CO[C@H]1C[C@@H]2CC[C@@H](C)[C@@](O)(O2)C(=O)C(=O)N2CCCC[C@H]2C(=O)O[C@H]([C@H](C)C[C@@H]2CC[C@H](n3cnnn3)[C@H](OC)C2)CC(=O)[C@H](C)/C=C(\C)[C@@H](O)[C@@H](OC)C(=O)[C@H](C)C[C@H](C)/C=C/C=C/C=C/1C [zotarolimus]
How it was run: as §1

[14] = compound: C[C@H](C1=CC=C(C=C1)C(=O)NC2=C3C=CNC3=NC=C2)N
How it was run: as §1

[15] = compound: Cc1cc(Nc2cc(N3CCN(C)CC3)nc(Sc3ccc(NC(=O)C4CC4)cc3)n2)n[nH]1 [tozasertib]
How it was run: as §1

[16] = compound: COc1cc(C(=O)O)ccc1NC(=O)[C@@H]1N[C@@H](CC(C)(C)C)[C@](C#N)(c2ccc(Cl)cc2F)[C@H]1c1cccc(Cl)c1F [idasanutlin]
How it was run: as §1

[17] = compound: COC1=CC=C(C=C1)CN2C=CC3=C2C=C(C=C3)C(=O)NO
How it was run: as §1

[18] = compound: C[C@@H](Oc1cc(-c2cnn(C3CCNCC3)c2)cnc1N)c1c(Cl)ccc(F)c1Cl [crizotinib]
How it was run: as §1

[19] = compound: Cc1ccc(-n2nc(C(C)(C)C)cc2NC(=O)Nc2ccc(OCCN3CCOCC3)c3ccccc23)cc1 [doramapimod]
How it was run: as §1

[20] = compound: C[C@H](Nc1ncnc2nc[nH]c12)c1cc2cccc(Cl)c2c(=O)n1-c1ccccc1 [duvelisib]
How it was run: as §1

Measured: log2 fold change

PPP1R12C (UniProt Q9BZL4)
inactive: [1] 0.066 | [2] 0.071 | [3] -0.237 | [4] 0.074 | [5] -0.009 | [6] 0.084 | [7] -0.228 | [8] -0.016 | [9] -0.198 | [10] -0.001 | [11] 0.018 | [12] -0.009

PPP1R12B isoform 6 (UniProt O60237)
inactive: [4] 0.077

PPP2R1B (UniProt H0YDG7)
inactive: [1] 0.244 | [13] -0.06 | [2] 0.143 | [4] 0.017 | [5] 0.178 | [7] 0.57 | [8] 0.216 | [14] 0.191 | [10] 0.13 | [15] -0.002

PRELID3B (UniProt Q9Y3B1)
inactive: [16] 0.695 | [3] -0.592 | [6] 0.251 | [7] 0.146 | [9] -0.061 | [10] 0.468 | [15] -0.034

PPP2R5B (UniProt Q15173)
inactive: [16] -0.065 | [2] 0.088 | [3] 0.148 | [4] -0.079 | [5] -0.058 | [6] 0.051 | [7] 0.01 | [10] -0.277 | [11] -0.002

PRC1 (UniProt O43663)
inactive: [1] -0.026 | [13] 0.048 | [16] -0.013 | [8] 0.029 | [14] 0.12 | [15] 0.084

PPP1CC (UniProt F8W1A0)
inactive: [2] 0.392 | [5] -0.589 | [7] -0.012 | [10] 0.27

PRR4 (UniProt Q16378)
inactive: [17] 0.483 | [16] 0.17 | [2] 0.206 | [4] 0.157 | [5] -0.073 | [18] 0.182 | [19] -0.284 | [12] 0.635

PPP2R3C (UniProt Q969Q6)
inactive: [15] 0.007

PRIMPOL (UniProt Q96LW4)
inactive: [1] 0.147 | [13] -0.021 | [16] 0.055 | [3] 0.45 | [6] 0 | [8] -0.19 | [14] 0.122 | [20] -0.006 | [15] 0.039 | [11] -0.012

PRR14L (UniProt Q5THK1)
inactive: [13] -0.083 | [16] 0 | [3] 0.069 | [4] -0.065 | [6] 0.1 | [7] 0.103 | [14] -0.072 | [10] -0.084

3 records picked at random from those above:
PRC1 (UniProt O43663)
inactive: [1] -0.026 | [13] 0.048 | [16] -0.013 | [8] 0.029 | [14] 0.12 | [15] 0.084

PRR4 (UniProt Q16378)
inactive: [17] 0.483 | [16] 0.17 | [2] 0.206 | [4] 0.157 | [5] -0.073 | [18] 0.182 | [19] -0.284 | [12] 0.635

PRR14L (UniProt Q5THK1)
inactive: [13] -0.083 | [16] 0 | [3] 0.069 | [4] -0.065 | [6] 0.1 | [7] 0.103 | [14] -0.072 | [10] -0.084

Carrying on.

PRPF39 (UniProt Q86UA1)
inactive: [13] 0.092 | [3] 0.038 | [6] -0.091 | [14] 0.004 | [20] 0.169 | [15] 0.25 | [11] 0.181

PPP1R13L (UniProt Q8WUF5)
inactive: [3] 0.159 | [4] -0.033 | [6] 0.009 | [7] -0.034 | [9] 0.28 | [10] -0.275 | [15] -0.112

PPP2R2A, A0A590UJJ1
inactive: [16] -0.072 | [7] -0.016 | [10] -0.148

PRR12 (UniProt Q9ULL5)
inactive: [1] -0.087 | [8] 0.242

PROSER3 (UniProt Q2NL68)
inactive: [13] 0.12 | [3] -0.11 | [4] -0.053 | [6] 0.111 | [14] -0.045 | [20] -0.171 | [15] 0.103 | [11] -0.316

PPTC7 (UniProt Q8NI37)
inactive: [17] -0.181 | [7] 0.237 | [18] -0.039 | [9] 0.001 | [10] 0.008 | [19] 0.151

PPP2R5C isoform 2 (UniProt Q13362)
inactive: [17] 0.159 | [2] 0.005 | [5] -0.009 | [18] 0.243 | [19] 0.052 | [12] 0.023

PRRG1 (UniProt O14668)
inactive: [17] -0.098 | [2] -0.144 | [3] -0.028 | [5] 0.013 | [6] 0.092 | [7] 0.022 | [18] 0.079 | [10] -0.026 | [19] -0.053 | [12] -0.025

PRMT2 (UniProt P55345)
inactive: [1] -0.03 | [8] -0.051

PRKD2 (UniProt M0R346)
inactive: [1] 0.038 | [7] 0.06 | [8] -0.025 | [9] 0.241 | [10] 0.109

PRKX (UniProt P51817)
inactive: [2] 0.014 | [5] 0.098

PPP2R3B (UniProt Q9Y5P8)
inactive: [16] -0.336 | [2] -0.036 | [4] 0.013 | [5] -0.149 | [9] -0.247 | [15] 0.06

PRH1 (UniProt P02810)
inactive: [4] 0.55

PRF1 (UniProt P14222)
inactive: [1] 0.056 | [3] 0.163 | [6] 0.009 | [8] -0.012 | [9] 0.045

PPP1R16A (UniProt Q96I34)
inactive: [12] 0.117

PRNP (UniProt P04156)
inactive: [1] 0.174 | [2] -0.244 | [5] 0.003 | [7] -0.017 | [8] 0.104 | [10] -0.007

PPP1R3D (UniProt O95685)
inactive: [17] -0.025 | [13] -0.035 | [2] -0.276 | [4] 0.045 | [5] 0.021 | [7] -0.299 | [18] 0.055 | [14] -0.116 | [10] 0.069 | [15] 0.09 | [19] -0.039 | [12] 0.043

PRELID2 (UniProt Q8N945)
inactive: [17] -0.091 | [18] -0.281 | [19] 0.147

PRR16 (UniProt Q569H4)
inactive: [7] -0.299 | [10] -0.025

PROSER1 (UniProt Q86XN7)
inactive: [1] 0.084 | [3] 0.046 | [6] 0.025 | [8] 0.008 | [15] -0.196 | [12] -0.118

PROSER3, A0A2R8Y8D9
inactive: [1] 0.014 | [13] 0.013 | [16] 0.24 | [2] -0.14 | [5] 0.365 | [8] 0.016 | [9] -0.132 | [14] -0.078 | [20] 0.049 | [15] -0.011 | [11] 0.061

From the supplement of paper PMC10849652
